Results as given in the supplement of paper PMC10849652.
This is one part of the list.

By UniProt entry, the sequences of proteins in these tests, tags left out. Where a name states a change or a piece, a line headed by the entry shows the natural chain unless it says otherwise.
UniProt O43488: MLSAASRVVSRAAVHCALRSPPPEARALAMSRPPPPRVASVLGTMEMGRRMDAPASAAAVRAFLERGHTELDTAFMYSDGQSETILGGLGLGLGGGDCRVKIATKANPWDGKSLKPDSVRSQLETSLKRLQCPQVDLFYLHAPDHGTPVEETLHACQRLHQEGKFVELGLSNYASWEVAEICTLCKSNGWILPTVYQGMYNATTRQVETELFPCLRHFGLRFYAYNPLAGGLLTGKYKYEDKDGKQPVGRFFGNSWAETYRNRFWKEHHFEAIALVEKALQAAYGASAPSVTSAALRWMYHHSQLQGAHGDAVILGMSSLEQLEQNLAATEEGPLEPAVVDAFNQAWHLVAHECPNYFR
UniProt O00116: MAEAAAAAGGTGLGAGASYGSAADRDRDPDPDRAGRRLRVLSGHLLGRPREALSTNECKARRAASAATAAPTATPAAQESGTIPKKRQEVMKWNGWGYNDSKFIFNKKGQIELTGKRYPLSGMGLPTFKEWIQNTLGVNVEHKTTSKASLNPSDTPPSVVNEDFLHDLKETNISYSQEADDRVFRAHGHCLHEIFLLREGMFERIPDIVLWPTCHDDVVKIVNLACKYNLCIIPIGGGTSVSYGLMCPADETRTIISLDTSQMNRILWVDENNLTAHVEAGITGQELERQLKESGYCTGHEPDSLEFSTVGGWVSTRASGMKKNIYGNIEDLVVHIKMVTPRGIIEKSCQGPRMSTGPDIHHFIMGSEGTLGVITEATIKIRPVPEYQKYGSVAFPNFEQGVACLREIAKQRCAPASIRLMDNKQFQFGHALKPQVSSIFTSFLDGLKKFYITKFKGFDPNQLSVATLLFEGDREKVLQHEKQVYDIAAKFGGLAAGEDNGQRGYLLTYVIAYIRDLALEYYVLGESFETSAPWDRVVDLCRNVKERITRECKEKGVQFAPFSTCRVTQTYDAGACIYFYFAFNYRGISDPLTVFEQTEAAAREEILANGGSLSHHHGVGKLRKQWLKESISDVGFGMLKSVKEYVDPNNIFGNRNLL
UniProt Q9UKV8, whole entry, looked up: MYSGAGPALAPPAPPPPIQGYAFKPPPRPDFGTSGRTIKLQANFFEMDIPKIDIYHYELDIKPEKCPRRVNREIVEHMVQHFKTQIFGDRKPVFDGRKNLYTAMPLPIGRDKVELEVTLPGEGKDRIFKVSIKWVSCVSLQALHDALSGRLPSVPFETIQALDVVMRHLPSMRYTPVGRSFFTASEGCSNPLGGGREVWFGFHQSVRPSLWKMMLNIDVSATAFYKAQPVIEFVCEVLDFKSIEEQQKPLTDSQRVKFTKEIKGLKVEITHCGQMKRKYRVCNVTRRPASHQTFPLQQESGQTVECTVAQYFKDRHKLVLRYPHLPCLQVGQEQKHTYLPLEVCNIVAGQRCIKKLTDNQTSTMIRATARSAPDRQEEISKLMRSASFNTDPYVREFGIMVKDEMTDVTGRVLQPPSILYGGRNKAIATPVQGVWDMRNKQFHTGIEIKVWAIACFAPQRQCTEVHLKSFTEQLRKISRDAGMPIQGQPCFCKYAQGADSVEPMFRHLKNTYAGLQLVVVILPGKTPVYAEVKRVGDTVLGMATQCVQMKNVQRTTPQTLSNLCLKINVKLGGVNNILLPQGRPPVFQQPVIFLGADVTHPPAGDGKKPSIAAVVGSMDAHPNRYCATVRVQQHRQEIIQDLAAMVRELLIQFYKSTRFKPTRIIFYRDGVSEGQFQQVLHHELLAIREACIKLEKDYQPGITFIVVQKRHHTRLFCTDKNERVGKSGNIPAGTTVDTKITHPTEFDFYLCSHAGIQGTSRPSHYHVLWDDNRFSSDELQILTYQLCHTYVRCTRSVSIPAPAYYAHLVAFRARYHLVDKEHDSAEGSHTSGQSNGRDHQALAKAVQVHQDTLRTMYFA
UniProt O94788: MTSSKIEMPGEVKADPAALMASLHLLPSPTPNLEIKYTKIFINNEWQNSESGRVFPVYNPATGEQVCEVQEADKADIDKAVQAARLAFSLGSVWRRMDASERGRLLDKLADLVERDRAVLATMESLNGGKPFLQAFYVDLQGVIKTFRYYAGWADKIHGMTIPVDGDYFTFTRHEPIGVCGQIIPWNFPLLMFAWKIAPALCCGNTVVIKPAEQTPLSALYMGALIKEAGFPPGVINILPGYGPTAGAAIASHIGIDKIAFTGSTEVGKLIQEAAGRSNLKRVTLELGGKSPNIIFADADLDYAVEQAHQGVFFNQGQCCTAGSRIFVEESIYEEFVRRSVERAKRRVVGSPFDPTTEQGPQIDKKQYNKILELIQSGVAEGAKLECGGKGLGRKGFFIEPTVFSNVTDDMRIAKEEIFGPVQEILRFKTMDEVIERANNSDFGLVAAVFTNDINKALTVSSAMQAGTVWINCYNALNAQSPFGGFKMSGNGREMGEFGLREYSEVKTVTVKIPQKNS
UniProt Q9H1A4, whole entry, looked up: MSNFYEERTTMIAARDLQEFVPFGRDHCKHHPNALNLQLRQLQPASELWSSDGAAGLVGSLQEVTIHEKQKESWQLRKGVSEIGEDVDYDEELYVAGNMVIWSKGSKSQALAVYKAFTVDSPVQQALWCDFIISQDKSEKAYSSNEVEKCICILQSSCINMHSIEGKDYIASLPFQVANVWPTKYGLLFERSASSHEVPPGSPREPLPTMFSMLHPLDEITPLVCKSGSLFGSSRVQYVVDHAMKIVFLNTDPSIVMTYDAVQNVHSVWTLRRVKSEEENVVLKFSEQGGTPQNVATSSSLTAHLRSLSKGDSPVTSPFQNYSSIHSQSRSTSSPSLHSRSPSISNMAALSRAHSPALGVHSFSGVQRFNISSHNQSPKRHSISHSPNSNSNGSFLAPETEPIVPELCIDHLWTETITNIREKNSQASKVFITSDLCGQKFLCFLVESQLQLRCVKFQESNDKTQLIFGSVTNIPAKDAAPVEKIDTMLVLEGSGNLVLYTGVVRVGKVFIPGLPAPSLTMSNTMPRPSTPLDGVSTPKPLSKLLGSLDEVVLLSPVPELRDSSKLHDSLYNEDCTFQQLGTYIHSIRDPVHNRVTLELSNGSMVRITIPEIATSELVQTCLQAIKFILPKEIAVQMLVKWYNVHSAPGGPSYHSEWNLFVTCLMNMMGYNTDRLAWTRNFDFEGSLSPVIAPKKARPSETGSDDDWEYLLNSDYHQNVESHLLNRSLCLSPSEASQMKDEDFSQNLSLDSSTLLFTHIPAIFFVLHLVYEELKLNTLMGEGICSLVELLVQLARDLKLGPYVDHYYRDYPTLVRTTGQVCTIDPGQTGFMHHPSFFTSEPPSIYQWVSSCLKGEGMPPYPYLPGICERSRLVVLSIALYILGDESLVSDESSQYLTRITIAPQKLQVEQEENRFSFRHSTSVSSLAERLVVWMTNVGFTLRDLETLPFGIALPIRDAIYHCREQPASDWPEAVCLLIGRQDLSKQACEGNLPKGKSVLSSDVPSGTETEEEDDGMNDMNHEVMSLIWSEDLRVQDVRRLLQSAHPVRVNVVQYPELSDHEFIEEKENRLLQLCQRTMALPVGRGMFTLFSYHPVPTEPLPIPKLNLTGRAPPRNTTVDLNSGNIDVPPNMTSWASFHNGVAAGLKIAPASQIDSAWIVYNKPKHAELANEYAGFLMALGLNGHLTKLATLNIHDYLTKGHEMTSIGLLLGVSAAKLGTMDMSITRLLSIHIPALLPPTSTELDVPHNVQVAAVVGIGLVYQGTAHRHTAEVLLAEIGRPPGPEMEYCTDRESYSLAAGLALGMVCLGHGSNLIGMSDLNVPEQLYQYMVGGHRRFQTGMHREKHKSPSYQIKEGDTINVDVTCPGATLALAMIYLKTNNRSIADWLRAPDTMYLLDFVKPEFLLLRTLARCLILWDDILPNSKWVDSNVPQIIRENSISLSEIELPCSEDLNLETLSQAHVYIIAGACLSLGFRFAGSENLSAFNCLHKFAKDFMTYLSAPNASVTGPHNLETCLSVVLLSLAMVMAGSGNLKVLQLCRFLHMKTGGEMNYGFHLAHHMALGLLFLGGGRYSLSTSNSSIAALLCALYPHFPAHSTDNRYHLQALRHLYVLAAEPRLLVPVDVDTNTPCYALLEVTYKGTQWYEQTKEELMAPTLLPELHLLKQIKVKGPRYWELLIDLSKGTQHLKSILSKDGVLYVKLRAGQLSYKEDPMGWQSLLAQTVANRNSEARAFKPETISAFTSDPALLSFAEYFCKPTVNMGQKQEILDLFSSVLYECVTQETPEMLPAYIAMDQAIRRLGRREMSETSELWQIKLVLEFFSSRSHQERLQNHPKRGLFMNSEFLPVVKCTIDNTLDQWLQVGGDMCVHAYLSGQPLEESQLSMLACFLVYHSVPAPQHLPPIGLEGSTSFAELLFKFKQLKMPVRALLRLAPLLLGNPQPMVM
UniProt Q16186: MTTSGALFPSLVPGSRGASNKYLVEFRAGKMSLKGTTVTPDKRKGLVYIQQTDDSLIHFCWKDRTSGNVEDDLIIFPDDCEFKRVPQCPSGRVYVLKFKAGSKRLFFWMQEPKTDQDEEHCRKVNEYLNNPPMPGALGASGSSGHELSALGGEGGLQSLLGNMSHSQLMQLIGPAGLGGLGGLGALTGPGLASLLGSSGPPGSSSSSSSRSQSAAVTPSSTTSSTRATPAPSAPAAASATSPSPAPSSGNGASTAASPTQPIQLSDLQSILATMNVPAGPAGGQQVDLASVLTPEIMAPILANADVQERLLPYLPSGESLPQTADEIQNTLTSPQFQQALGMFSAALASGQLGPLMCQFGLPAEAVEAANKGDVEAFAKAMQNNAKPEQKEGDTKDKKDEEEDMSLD
UniProt Q96HN2, whole entry, looked up: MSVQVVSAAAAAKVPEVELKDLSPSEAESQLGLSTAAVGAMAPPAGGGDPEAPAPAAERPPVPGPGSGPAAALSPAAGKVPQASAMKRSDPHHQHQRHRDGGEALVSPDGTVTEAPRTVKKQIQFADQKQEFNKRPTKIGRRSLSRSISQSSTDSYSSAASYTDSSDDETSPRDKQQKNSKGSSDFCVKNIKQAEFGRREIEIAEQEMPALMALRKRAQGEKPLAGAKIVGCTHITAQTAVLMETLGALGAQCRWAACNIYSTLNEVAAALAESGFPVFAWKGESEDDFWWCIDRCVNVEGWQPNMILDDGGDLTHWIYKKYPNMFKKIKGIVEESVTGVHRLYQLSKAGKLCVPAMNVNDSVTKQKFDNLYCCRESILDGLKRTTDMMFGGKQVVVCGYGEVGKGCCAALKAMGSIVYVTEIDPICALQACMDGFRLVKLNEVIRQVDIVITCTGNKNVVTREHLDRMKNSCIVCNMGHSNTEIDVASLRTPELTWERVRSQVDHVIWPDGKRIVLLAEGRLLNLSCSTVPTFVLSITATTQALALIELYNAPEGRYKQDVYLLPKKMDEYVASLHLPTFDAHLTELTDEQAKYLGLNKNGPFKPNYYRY
UniProt P49189: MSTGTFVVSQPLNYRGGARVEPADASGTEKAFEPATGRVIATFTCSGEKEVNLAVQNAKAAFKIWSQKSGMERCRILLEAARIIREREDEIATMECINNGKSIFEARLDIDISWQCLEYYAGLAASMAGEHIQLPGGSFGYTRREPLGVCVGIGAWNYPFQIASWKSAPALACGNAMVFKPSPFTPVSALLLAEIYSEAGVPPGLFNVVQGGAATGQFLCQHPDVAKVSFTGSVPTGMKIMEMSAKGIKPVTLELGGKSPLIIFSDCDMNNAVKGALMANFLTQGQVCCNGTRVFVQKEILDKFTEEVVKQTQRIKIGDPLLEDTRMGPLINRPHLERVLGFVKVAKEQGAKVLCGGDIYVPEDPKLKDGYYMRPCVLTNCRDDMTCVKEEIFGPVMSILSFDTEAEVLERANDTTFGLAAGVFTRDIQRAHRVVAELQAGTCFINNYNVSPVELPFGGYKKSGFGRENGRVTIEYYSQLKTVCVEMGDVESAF
UniProt Q9H553: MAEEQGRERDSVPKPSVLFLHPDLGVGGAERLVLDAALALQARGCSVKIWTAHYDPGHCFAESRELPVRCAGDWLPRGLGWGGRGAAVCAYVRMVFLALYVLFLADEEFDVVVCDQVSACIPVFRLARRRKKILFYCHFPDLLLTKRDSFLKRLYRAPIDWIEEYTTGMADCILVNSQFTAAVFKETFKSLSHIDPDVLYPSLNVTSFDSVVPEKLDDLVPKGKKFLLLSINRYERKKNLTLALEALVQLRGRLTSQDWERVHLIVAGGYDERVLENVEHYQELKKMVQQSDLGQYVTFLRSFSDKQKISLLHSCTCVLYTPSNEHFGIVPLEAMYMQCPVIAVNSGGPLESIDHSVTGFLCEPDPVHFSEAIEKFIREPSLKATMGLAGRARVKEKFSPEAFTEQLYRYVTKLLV

Tests used:
Test in all cases: log2 fold change, soluble protein after heating vs DMSO (PISA); higher = thermal stabilisation; K562 cells, 10 uM, 30 min; active = over 0.2 and 3.5 SD of the protein, either way, in both replicates (recomputed)
bafetinib = compound: Cc1ccc(NC(=O)c2ccc(CN3CC[C@H](N(C)C)C3)c(C(F)(F)F)c2)cc1Nc1nccc(-c2cncnc2)n1 [bafetinib]
Method in brief: (§1)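 K562 cells at 2×10^6 cells/mL were treated for 30 min with 10 μM compound, and aliquots were heated for 3 min over 48°C-58°C before pooling. Extraction used PBS with 0.5% NP-40 at 4°C, and soluble protein was the supernatant after 21,000xg for 90 min, measured by TMTpro 16plex LC-MS/MS with channel sums equalised. Thermal stability values, relative to control samples and from duplicates, are log2 fold changes.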

[1] = compound: Cc1cccc(CC(=O)N2CCc3c2ccc(-c2cn(C)c4ncnc(N)c24)c3F)n1
Method in brief: as §1

nilotinib = compound: Cc1cn(-c2cc(NC(=O)c3ccc(C)c(Nc4nccc(-c5cccnc5)n4)c3)cc(C(F)(F)F)c2)cn1 [nilotinib]
Method in brief: as §1

[2] = compound: Cc1nc(Nc2n[nH]c3c2CN(C(=O)N[C@H](CN(C)C)c2ccccc2)C3(C)C)c2sccc2n1
Method in brief: as §1

dasatinib = compound: Cc1nc(Nc2ncc(C(=O)Nc3c(C)cccc3Cl)s2)cc(N2CCN(CCO)CC2)n1 [dasatinib]
Method in brief: as §1

[3] = compound: Cc1ncc(-c2ccnc(Nc3ccc(S(C)(=O)=O)cc3)n2)n1C(C)C
Method in brief: as §1

[4] = compound: Cn1cc(-c2ccc3c(c2)CCN3C(=O)Cc2cccc(C(F)(F)F)c2)c2c(N)ncnc21
Method in brief: as §1

[5] = compound: Cn1cc(-c2ccc3nnc(C(F)(F)c4ccc5ncccc5c4)n3n2)cn1
Method in brief: as §1

tipifarnib = compound: Cn1cncc1[C@@](N)(c1ccc(Cl)cc1)c1ccc2c(c1)c(-c1cccc(Cl)c1)cc(=O)n2C [tipifarnib]
Method in brief: as §1

mubritinib = compound: FC(F)(F)c1ccc(/C=C/c2nc(COc3ccc(CCCCn4ccnn4)cc3)co2)cc1 [mubritinib]
Method in brief: as §1

[6] = compound: NC(=O)Nc1cc(-c2cccc(F)c2)sc1C(=O)N[C@H]1CCCNC1
Method in brief: as §1

[7] = compound: NC(=O)c1cnc(N[C@@H]2CCCC[C@@H]2N)nc1Nc1cccc(-n2nccn2)c1
Method in brief: as §1

[8] = compound: NC1(c2ccc(-c3nc4ccn5c(=O)[nH]nc5c4cc3-c3ccccc3)cc2)CCC1
Method in brief: as §1

[9] = compound: NCC(=O)Nc1ccc(-n2nc(C(F)(F)F)cc2-c2ccc3c(ccc4ccccc43)c2)cc1
Method in brief: as §1

entinostat = compound: Nc1ccccc1NC(=O)c1ccc(CNC(=O)OCc2cccnc2)cc1 [entinostat]
Method in brief: as §1

vorinostat = compound: O=C(CCCCCCC(=O)Nc1ccccc1)NO [vorinostat]
Method in brief: as §1

citarinostat = compound: O=C(CCCCCCNC(=O)c1cnc(N(c2ccccc2)c2ccccc2Cl)nc1)NO [citarinostat]
Method in brief: as §1

silmitasertib = compound: O=C(O)c1ccc2c(c1)nc(Nc1cccc(Cl)c1)c1ccncc12 [silmitasertib]
Method in brief: as §1

[10] = compound: O=C1NC(=O)C(c2cnc3ccccn23)=C1c1cn2c3c(cc(F)cc13)CN(C(=O)N1CCCCC1)CC2
Method in brief: as §1

[11] = compound: c1cc(OCCN2CCCCC2)cc(-c2n[nH]c3ccc(-c4nnc[nH]4)cc23)c1
Method in brief: as §1

Measured: log2 fold change

ADPGK (UniProt Q9BRR6)
inactive: bafetinib -0.023 | [1] 0.024 | nilotinib -0.036 | [2] 0.062 | dasatinib -0.025 | [3] -0.044 | [4] -0.01 | [5] -0.005 | tipifarnib 0.062 | mubritinib 0.022 | [6] -0.103 | [7] -0.025 | [8] -0.027 | [9] -0.023 | entinostat -0.025 | vorinostat 0.003 | citarinostat 0.017 | silmitasertib 0.04 | [10] -0.062 | [11] -0.078

AKR7A2 (UniProt O43488)
inactive: bafetinib -0.01 | [1] -0.022 | nilotinib 0.037 | [2] 0.007 | dasatinib -0.049 | [3] -0.025 | [4] 0.061 | [5] 0.022 | tipifarnib -0.111 | mubritinib -0.039 | [6] 0.004 | [7] 0.084 | [8] -0.017 | [9] 0.069 | entinostat 0.001 | vorinostat 0.015 | citarinostat 0.044 | silmitasertib -0.078 | [10] -0.065 | [11] 0.011

AGO3 (UniProt Q9H9G7)
inactive: bafetinib 0.008 | [1] -0.049 | nilotinib 0.087 | [2] 0.015 | dasatinib -0.093 | [3] -0.058 | [4] -0.337 | [5] 0.011 | tipifarnib -0.014 | mubritinib -0.196 | [6] 0.03 | [7] -0.137 | [8] 0.375 | [9] -0.016 | entinostat -0.018 | vorinostat 0.032 | citarinostat -0.086 | silmitasertib 0.068 | [10] 0.106 | [11] -0.11

AGPS (UniProt O00116)
inactive: bafetinib -0.068 | [1] 0.025 | nilotinib 0.039 | [2] -0.012 | dasatinib -0.023 | [3] 0.006 | [4] 0.09 | [5] 0.01 | tipifarnib 0.032 | mubritinib 0.112 | [6] -0.013 | [7] 0.007 | [8] -0.112 | [9] 0 | entinostat 0.023 | vorinostat 0.045 | citarinostat 0.058 | silmitasertib 0.011 | [10] -0.107 | [11] -0.011

ADSS1 (UniProt Q8N142)
inactive: bafetinib 0 | [1] -0.042 | nilotinib 0.125 | [2] -0.043 | dasatinib 0.026 | [3] -0.015 | [4] 0.04 | [5] -0.047 | tipifarnib -0.066 | mubritinib 0.155 | [6] -0.017 | [7] -0.038 | [8] -0.056 | [9] -0.048 | entinostat 0 | vorinostat -0.001 | citarinostat 0.032 | silmitasertib -0.028 | [10] -0.07 | [11] -0.063

AGO2 (UniProt Q9UKV8)
inactive: bafetinib 0.011 | [1] -0.03 | nilotinib 0.03 | [2] 0.066 | dasatinib 0.075 | [3] 0.079 | [4] -0.064 | [5] 0.024 | tipifarnib 0.069 | mubritinib -0.022 | [6] -0.008 | [7] 0.07 | [8] 0.096 | [9] 0.022 | entinostat -0.072 | vorinostat 0.014 | citarinostat 0.012 | silmitasertib 0.034 | [10] 0.074 | [11] -0.132

ALDH1A2 (UniProt O94788)
inactive: bafetinib 0.017 | [1] -0.003 | nilotinib 0.058 | [2] 0 | dasatinib -0.002 | [3] 0.004 | [4] 0.048 | [5] 0.052 | tipifarnib -0.019 | mubritinib 0.059 | [6] 0.003 | [7] -0.011 | [8] 0.003 | [9] 0.008 | entinostat -0.022 | vorinostat 0.064 | citarinostat -0.016 | silmitasertib -0.012 | [10] -0.004 | [11] -0.023

ANAPC1 (UniProt Q9H1A4)
inactive: bafetinib 0.005 | [1] -0.022 | nilotinib -0.009 | [2] -0.017 | dasatinib 0 | [3] 0.014 | [4] -0.073 | [5] -0.038 | tipifarnib 0.02 | mubritinib 0.006 | [6] -0.001 | [7] -0.032 | [8] -0.07 | [9] -0.009 | entinostat -0.006 | vorinostat 0.003 | citarinostat 0.009 | silmitasertib 0.042 | [10] 0.03 | [11] -0.053

AIFM2 (UniProt Q9BRQ8)
inactive: bafetinib 0.008 | [1] -0.129 | nilotinib 0.067 | [2] 0.023 | dasatinib 0.046 | [3] -0.043 | [4] 0.081 | [5] 0.032 | tipifarnib 0.199 | mubritinib 0.025 | [6] 0.016 | [7] -0.019 | [8] 0.034 | [9] -0.02 | entinostat -0.01 | vorinostat -0.053 | citarinostat 0.046 | silmitasertib 0.03 | [10] 0.047 | [11] -0.034

ALYREF (UniProt Q86V81)
inactive: bafetinib 0.246 | [1] -0.037 | nilotinib 0.012 | [2] 0.211 | dasatinib 0.259 | [3] 0.053 | [4] -0.236 | [5] -0.086 | tipifarnib 0.103 | mubritinib -0.078 | [6] 0.003 | [7] 0.088 | [8] 0.317 | [9] 0.147 | entinostat -0.096 | vorinostat -0.034 | citarinostat -0.125 | silmitasertib 0.156 | [10] 0.271 | [11] -0.09

ADRM1 (UniProt Q16186)
inactive: [1] 0.072 | nilotinib 0.028 | [2] 0.063 | dasatinib -0.036 | [3] 0.006 | [4] -0.061 | [5] -0.003 | tipifarnib 0.01 | mubritinib -0.006 | [6] -0.009 | [7] -0.045 | [8] -0.058 | [9] 0.006 | entinostat -0.012 | vorinostat 0.038 | citarinostat 0.067 | silmitasertib 0 | [10] 0.064 | [11] -0.052
active: bafetinib 0.238

Reprinted at random: 2 records from the list.
AKR7A2 (UniProt O43488)
inactive: bafetinib -0.01 | [1] -0.022 | nilotinib 0.037 | [2] 0.007 | dasatinib -0.049 | [3] -0.025 | [4] 0.061 | [5] 0.022 | tipifarnib -0.111 | mubritinib -0.039 | [6] 0.004 | [7] 0.084 | [8] -0.017 | [9] 0.069 | entinostat 0.001 | vorinostat 0.015 | citarinostat 0.044 | silmitasertib -0.078 | [10] -0.065 | [11] 0.011

ADRM1 (UniProt Q16186)
inactive: [1] 0.072 | nilotinib 0.028 | [2] 0.063 | dasatinib -0.036 | [3] 0.006 | [4] -0.061 | [5] -0.003 | tipifarnib 0.01 | mubritinib -0.006 | [6] -0.009 | [7] -0.045 | [8] -0.058 | [9] 0.006 | entinostat -0.012 | vorinostat 0.038 | citarinostat 0.067 | silmitasertib 0 | [10] 0.064 | [11] -0.052
active: bafetinib 0.238

Next results.

AHCYL2 (UniProt Q96HN2)
inactive: bafetinib -0.017 | [1] -0.025 | nilotinib 0.085 | [2] -0.052 | dasatinib 0.062 | [3] 0.056 | [4] 0.034 | [5] 0.009 | tipifarnib -0.019 | mubritinib 0.013 | [6] 0.035 | [7] 0.032 | [8] 0.014 | [9] 0.01 | entinostat -0.074 | vorinostat -0.044 | citarinostat -0.078 | silmitasertib 0.035 | [10] -0.036 | [11] 0.111

AKT1S1 isoform 3 (UniProt Q96B36)
inactive: bafetinib -0.05 | [1] -0.037 | nilotinib 0.047 | [2] 0.052 | dasatinib 0.037 | [3] -0.019 | [4] 0.012 | [5] -0.01 | tipifarnib 0.066 | mubritinib 0.024 | [6] 0.036 | [7] -0.047 | [8] 0.127 | [9] -0.006 | entinostat -0.051 | vorinostat -0.03 | citarinostat -0.027 | silmitasertib -0.048 | [10] 0.038 | [11] -0.014

ALG10B (UniProt Q5I7T1)
inactive: bafetinib -0.066 | [1] 0.022 | nilotinib -0.033 | [2] -0.078 | dasatinib -0.052 | [3] 0.074 | [4] 0.077 | [5] -0.076 | tipifarnib 0.08 | mubritinib -0.017 | [6] -0.022 | [7] -0.088 | [8] -0.164 | [9] 0.142 | entinostat 0.028 | vorinostat -0.026 | citarinostat -0.032 | silmitasertib 0.041 | [10] 0.065 | [11] -0.123

ALDH9A1 (UniProt P49189)
inactive: bafetinib 0.023 | [1] 0.071 | nilotinib -0.08 | [2] -0.046 | dasatinib -0.105 | [3] 0.019 | [4] 0.047 | [5] 0.044 | tipifarnib 0.099 | mubritinib -0.015 | [6] 0.079 | [7] 0.051 | [8] -0.024 | [9] 0 | entinostat -0.014 | vorinostat -0.209 | citarinostat -0.014 | silmitasertib -0.033 | [10] 0.025 | [11] 0.055

ALG2 (UniProt Q9H553)
inactive: bafetinib -0.085 | [1] -0.045 | nilotinib -0.008 | [2] 0.003 | dasatinib -0.011 | [3] -0.006 | [4] 0.016 | [5] 0.056 | tipifarnib 0.003 | mubritinib 0.025 | [6] -0.081 | [7] -0.036 | [8] -0.017 | [9] -0.061 | entinostat 0.024 | vorinostat -0.026 | citarinostat -0.036 | silmitasertib 0.072 | [10] -0.032 | [11] -0.029
